According to patent US20210311061A1, “USE OF TROP-2 AS PREDICTIVE MARKER OF RESPONSE TO ANTI-TUMOR THERAPY BASED ON INHIBITORS OF CD9, AKT AND MOLECULES OF THE TETRASPANIN SIGNALLING NETWORK” (ONCOXX BIOTECH S.R.L., priority 2012, published 2021):
Results are given in words; binding and its absence hold for the method and conditions named. Binding seen in cells or lysates may run through a third protein. Some entries that bind do so weakly or less than the wild type.

Sequences of proteins named here, by UniProt entry; tags and fusion partners are left off. Residues count along the entry.
UniProt P21926, residues 2-228: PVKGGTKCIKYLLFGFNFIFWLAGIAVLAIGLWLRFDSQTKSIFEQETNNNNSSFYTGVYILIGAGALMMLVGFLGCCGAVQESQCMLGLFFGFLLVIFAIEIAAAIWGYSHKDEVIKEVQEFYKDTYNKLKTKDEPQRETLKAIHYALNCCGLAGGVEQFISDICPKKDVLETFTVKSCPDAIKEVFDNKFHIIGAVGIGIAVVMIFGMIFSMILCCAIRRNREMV
UniProt P09758, residues 27-323: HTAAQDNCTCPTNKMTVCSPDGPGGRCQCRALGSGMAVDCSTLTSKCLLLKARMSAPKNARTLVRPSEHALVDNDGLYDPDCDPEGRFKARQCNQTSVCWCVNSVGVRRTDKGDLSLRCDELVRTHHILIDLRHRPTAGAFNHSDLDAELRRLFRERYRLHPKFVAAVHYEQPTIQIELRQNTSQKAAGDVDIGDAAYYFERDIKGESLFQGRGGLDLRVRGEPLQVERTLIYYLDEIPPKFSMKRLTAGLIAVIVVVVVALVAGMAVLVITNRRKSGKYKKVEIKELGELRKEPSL

What was measured:
human CD9 (human) [1] = molecular target: human CD9 (human) (UniProt P21926); assay: co-capping and co-immunoprecipitation, MCF7 cells
human CD9 (human) [2] = molecular target: human CD9 (human) (UniProt P21926); assay: co-immunoprecipitation from BRIJ lysate, Western blot, MCF7 cells
murine CD9 (murine) [3] = molecular target: T1, murine CD9 (murine) (UniProt P40240); assay: co-immunoprecipitation from BRIJ lysate, Western blot, MTE 4-14 cells
T1 sequence (looked up): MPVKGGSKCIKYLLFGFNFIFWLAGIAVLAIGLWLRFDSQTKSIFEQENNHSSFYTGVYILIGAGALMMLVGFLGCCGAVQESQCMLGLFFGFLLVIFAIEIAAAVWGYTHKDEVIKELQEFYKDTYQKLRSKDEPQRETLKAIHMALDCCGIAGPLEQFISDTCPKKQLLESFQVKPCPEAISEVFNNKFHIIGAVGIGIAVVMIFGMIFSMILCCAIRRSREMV

murine CD9 (murine) [4] = molecular target: T1, murine CD9 (murine); assay: co-capping and co-immunoprecipitation (also confocal co-localization), MTE 4-14 cells

- binding (human CD9 (human) [1]): binds
- binding (human CD9 (human) [2]): binds
- binding (murine CD9 (murine) [3]): binds
- binding (murine CD9 (murine) [4]): binds
Substance: Trop-2 (human, wild-type) (from UniProt P09758 27-323) (receptor)
